Among the data in PMC9241615 are binding values, retold here.

Sequences of proteins named here, by UniProt entry; tags and fusion partners are left off. A change or cut given only in a name is not applied to a line headed by its entry. A line that says so, or that is headed by a name, gives the form on record, which may keep a tag or linker.
UniProt Q5MWV9: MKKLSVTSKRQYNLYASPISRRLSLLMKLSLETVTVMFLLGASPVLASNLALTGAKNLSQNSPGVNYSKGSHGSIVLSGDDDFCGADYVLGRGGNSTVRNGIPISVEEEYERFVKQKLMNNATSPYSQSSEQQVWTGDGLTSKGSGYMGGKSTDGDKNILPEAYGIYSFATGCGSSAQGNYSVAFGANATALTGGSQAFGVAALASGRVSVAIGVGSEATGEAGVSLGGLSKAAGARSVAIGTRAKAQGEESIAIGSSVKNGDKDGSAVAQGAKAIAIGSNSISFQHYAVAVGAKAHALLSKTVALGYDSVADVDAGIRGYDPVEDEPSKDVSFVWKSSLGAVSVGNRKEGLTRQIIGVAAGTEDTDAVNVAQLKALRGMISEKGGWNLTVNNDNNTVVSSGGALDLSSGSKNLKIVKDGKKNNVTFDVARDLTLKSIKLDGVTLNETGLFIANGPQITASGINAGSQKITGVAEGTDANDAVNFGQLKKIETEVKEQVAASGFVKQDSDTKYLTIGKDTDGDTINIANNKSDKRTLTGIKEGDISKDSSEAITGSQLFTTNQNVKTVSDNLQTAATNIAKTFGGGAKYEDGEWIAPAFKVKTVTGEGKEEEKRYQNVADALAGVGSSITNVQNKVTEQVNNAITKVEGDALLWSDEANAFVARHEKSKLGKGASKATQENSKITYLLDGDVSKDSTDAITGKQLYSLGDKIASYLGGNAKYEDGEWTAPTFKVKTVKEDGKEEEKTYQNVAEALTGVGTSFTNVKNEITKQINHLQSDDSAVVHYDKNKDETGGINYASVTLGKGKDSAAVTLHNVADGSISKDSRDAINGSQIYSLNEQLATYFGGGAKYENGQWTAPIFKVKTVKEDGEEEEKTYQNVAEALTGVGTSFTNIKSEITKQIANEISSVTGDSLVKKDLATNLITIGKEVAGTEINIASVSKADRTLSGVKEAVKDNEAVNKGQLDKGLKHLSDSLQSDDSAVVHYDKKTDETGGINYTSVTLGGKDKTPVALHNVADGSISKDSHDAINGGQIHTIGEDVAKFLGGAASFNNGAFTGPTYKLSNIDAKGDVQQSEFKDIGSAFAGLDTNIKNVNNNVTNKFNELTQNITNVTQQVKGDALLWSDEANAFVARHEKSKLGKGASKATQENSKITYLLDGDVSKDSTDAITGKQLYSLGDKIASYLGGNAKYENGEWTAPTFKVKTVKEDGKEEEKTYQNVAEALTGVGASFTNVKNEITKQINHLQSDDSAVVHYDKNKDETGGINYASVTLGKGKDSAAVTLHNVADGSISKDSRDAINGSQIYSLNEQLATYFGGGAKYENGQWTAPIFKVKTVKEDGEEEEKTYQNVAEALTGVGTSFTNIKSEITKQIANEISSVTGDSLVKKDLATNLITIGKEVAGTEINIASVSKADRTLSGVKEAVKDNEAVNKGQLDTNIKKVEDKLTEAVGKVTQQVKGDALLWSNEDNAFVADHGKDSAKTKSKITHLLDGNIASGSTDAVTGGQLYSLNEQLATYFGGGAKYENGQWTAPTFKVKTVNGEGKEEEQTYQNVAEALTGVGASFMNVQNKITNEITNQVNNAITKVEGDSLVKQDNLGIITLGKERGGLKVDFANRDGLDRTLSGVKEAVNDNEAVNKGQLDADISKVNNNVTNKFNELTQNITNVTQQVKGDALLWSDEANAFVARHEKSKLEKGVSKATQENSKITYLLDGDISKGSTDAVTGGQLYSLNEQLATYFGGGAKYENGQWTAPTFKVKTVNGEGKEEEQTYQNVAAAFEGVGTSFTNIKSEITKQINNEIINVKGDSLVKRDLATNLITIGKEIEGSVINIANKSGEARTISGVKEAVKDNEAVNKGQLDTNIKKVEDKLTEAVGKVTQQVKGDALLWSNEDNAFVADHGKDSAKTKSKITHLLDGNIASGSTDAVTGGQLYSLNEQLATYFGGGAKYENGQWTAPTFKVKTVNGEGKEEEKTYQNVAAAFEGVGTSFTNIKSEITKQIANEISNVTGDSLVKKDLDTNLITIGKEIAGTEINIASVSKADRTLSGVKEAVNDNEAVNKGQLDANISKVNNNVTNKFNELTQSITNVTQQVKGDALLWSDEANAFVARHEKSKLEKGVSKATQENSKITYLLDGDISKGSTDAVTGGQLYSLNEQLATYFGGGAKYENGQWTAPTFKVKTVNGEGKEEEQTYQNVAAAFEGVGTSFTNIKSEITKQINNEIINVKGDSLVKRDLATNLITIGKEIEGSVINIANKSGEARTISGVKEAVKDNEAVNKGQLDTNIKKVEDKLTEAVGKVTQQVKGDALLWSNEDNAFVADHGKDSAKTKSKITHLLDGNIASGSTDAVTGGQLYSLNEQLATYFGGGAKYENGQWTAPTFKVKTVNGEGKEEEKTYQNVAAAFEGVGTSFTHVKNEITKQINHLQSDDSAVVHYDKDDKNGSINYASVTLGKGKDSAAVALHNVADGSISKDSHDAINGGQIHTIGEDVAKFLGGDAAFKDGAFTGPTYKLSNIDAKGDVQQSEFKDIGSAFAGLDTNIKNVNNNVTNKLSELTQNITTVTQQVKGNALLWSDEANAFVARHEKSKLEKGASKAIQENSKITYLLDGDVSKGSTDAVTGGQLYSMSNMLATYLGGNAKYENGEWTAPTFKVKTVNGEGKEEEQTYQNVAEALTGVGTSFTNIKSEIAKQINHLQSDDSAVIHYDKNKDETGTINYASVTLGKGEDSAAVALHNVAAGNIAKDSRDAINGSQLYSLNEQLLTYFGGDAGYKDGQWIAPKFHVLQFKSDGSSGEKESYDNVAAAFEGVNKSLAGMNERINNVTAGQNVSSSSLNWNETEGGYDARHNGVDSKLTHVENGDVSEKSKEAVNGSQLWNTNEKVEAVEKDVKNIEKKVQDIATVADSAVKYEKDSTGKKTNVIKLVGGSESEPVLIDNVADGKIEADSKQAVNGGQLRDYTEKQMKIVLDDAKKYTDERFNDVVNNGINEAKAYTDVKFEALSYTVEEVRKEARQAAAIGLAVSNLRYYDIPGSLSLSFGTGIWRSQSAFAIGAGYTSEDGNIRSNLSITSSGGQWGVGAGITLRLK
recombinant human fibronectin (Rn Fn), isoform 1 (P02751-1, form named): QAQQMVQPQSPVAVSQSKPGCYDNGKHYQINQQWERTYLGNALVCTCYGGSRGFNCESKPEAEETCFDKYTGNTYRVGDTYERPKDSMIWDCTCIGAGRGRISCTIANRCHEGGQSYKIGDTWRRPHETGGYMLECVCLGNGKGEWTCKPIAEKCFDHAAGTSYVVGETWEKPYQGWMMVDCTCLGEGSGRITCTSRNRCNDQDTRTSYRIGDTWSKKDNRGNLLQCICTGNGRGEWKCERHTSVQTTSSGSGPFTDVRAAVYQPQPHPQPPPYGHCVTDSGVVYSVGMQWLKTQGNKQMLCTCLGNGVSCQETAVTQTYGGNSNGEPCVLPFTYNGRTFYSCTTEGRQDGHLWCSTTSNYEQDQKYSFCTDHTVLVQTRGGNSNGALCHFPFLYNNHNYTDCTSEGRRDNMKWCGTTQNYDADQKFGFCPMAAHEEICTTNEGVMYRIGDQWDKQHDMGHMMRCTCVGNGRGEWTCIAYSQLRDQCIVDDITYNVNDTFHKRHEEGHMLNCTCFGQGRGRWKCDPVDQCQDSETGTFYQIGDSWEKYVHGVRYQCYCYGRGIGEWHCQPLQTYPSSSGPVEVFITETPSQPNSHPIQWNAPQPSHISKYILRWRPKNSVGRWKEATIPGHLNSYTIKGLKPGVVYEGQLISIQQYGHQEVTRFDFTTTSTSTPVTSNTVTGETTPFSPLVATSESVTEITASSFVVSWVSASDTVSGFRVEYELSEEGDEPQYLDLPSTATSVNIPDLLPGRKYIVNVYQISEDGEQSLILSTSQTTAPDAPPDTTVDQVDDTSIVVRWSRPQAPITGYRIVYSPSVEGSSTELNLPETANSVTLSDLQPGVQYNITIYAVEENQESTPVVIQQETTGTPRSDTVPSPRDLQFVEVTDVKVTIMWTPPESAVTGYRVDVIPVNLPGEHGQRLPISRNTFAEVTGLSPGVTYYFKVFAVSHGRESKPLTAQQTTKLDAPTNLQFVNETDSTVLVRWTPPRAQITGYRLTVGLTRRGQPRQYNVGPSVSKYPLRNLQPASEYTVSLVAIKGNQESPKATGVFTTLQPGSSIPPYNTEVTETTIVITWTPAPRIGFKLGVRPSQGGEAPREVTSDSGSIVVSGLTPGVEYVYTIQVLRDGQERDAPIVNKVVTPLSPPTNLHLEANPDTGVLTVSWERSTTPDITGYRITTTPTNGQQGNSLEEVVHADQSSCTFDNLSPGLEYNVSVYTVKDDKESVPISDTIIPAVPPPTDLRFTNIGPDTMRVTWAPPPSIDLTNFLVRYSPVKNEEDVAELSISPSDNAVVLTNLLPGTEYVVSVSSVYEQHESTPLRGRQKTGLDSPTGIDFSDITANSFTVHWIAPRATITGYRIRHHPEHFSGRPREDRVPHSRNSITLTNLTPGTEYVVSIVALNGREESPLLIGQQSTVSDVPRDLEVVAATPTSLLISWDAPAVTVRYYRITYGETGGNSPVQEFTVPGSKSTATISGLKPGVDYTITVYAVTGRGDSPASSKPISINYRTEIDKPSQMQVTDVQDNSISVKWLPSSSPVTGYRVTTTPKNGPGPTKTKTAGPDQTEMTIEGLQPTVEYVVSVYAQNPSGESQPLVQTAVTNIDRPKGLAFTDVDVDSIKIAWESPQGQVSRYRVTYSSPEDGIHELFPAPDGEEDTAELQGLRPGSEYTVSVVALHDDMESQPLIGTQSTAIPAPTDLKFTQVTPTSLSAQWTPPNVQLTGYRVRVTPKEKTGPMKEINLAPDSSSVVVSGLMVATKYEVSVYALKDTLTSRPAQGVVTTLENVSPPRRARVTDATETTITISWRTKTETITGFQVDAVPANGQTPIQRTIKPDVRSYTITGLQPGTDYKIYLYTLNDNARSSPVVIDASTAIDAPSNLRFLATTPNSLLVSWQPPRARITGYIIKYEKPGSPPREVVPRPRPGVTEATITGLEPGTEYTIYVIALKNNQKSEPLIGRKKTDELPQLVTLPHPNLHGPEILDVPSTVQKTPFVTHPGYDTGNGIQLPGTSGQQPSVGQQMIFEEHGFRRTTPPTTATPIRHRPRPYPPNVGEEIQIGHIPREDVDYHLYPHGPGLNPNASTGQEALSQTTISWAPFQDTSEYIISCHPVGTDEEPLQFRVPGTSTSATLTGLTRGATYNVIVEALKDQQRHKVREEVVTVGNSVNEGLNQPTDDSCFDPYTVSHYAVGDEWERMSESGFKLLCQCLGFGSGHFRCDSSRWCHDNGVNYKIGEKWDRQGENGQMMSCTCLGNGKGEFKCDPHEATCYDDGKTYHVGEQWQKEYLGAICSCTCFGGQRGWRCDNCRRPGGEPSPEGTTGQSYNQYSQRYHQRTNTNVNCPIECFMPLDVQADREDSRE

No constants are given. Whether binding was seen depends on the method and setting. In cells and extracts the contact can be indirect. Binding can be weak; no strength is given.

In this assay the target is Bartonella adhesin A (BadA) on whole B. henselae Marseille wild type bacteria (Bartonella henselae (strain Marseille)) (UniProt Q5MWV9). Briefly: cross-linking; XL-MS; whole B. henselae WT (BadA^- as negative control) incubated with purified Rn Fn or cellular Fn (7.5 μg, 30 min, 37°C, DPBS), washed, DSS-H12/D12 500 or 2,000 μM for 60 min at 37°C; surface-attached or whole-cell proteins; trypsin, DDA-MS, pLink 2, FDR 1%; only the binder purified.

As for “recombinant human fibronectin (Rn Fn), isoform 1 (from UniProt P02751-1 32-2386)”, the binding entry is on record as “binds”.
